Measured values published in paper PMC8123391.
Results are given in words; binding and its absence hold for the method and conditions named. In cells and extracts the contact can be indirect. Some binding calls cover weakened binding; strength is not graded here.

Protein sequences, listed by entry. Tags and fused reporters are not part of them.
UniProt Q4ACU6: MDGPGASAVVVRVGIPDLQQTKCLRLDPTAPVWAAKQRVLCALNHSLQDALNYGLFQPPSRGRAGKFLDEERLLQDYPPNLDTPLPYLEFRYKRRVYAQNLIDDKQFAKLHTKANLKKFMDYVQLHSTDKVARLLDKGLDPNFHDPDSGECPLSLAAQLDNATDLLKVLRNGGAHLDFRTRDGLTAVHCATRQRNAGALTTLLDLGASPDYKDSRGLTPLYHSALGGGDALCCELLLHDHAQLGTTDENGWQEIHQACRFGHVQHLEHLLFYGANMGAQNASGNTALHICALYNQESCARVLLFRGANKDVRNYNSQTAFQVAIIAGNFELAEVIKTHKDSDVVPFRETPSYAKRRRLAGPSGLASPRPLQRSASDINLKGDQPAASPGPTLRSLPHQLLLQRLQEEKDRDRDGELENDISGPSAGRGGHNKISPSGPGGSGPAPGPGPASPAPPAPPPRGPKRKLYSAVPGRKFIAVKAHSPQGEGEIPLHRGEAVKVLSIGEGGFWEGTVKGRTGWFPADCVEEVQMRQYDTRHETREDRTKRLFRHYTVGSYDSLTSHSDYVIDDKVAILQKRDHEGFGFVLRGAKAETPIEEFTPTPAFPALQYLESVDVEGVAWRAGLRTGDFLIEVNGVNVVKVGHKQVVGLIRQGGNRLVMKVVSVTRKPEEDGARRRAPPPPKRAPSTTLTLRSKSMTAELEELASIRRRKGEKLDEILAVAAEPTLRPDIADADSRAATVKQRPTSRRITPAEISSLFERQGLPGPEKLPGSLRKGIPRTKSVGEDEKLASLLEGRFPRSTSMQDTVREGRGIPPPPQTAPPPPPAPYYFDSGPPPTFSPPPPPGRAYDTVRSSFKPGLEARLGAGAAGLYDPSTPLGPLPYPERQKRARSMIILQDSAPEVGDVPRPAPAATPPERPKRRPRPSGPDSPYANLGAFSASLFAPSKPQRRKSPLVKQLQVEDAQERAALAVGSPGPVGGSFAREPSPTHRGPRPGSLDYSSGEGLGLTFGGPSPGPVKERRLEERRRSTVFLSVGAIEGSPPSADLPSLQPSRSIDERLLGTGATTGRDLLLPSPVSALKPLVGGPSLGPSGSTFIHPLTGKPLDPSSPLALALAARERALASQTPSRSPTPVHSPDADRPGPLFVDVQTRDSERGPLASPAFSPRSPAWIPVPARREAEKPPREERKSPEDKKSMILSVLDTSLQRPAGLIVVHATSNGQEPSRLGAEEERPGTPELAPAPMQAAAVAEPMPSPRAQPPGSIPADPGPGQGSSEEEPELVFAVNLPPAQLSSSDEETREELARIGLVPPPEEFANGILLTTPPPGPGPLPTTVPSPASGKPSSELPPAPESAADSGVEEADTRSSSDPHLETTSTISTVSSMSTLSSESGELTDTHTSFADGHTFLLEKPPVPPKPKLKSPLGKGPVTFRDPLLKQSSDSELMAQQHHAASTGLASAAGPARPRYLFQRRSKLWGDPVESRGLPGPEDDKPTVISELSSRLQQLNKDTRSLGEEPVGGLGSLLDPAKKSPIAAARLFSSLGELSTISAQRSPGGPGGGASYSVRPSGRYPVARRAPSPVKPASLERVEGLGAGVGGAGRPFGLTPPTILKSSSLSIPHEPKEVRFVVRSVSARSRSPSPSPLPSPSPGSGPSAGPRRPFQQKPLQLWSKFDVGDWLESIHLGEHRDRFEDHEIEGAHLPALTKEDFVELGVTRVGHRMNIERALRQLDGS

Target: SH3 and multiple ankyrin repeat domains 3 (SHANK3) (mouse or rat (endogenous in brain lysate; legend says mice, text says rat)) (UniProt Q4ACU6)
Assay: co-IP; μMACS magnetic beads loaded with Shank3 antibodies; brain lysate; ZIP4 detected in input and eluate; empty beads as control

binding: binds
B1: ZIP4 (protein, UniProt Q78IQ7 23-660)
chain: RPRNLLSLLALGQGALDRLELDGLLNTLVARVHCTDGPCEKCLSVENVLALGKPDKPQPAPESVLESRHIIYLSAAAALYLNNPEKTCKDIQAGLLASHVDDYLATLESPEAMTLGLSQLLQKIEAHAASQPTGEKTCVDLPQLLEEAEAAGVSKSAGLVLTALLDHVINGSCFQGLPSPQYFVDFVFRLHSSDPPNITLHELENLMHHLGVGGEDHSDHDDHGDHADHSHPDRKASHQDSELHTPHNSNSSVWDTLCLSAKDIMAVYGLSEEAGVSPQAWAQLTPALVQQQLSGACSPYPTIRIQDQLSQTERYLYGSLATLLICLCAVFGLLLLTCAKCSTATHYIMQTFLSLAVGALTGDALLHLIPKVLGLHTHGGEGHTHEEEVGVGGQATWRLLAVLGGFYIFFLFESFFNLLLPRDQDSEKDGPCSHGGHSHGISLQLAPSNLRQSKQTHESSRSDLVAEETPELLNPETRRLRAELRLLPYLITLGDAVHNFADGLAVGAAFSSSWKTGLATSLAVFCHELPHELGDFAALLHAGLSVKRALLLNLASALTAFAGLYVALAVGVGEEGEAWILAVATGLFLYVALCDMLPAMMNVRDQRPWLLFLLHNVGLLGGWTVLLLLSLYEDNITF
